Values of other authors, collected in US6534088B2, “Fibrate-statin combinations with reduced fed-fasted effects” (SkyePharma Canada Inc., priority 2001, dated 2003).

Details: oral administration

CC(C)c1c(C(=O)Nc2ccccc2)c(-c2ccccc2)c(-c2ccc(F)cc2)n1CC[C@@H](O)C[C@@H](O)CC(=O)O [Atorvastatin]
effect of food on absorption: decreases the rate and extent of drug absorption
